This is an account of results in the supplement of paper PMC7666118.

The chains behind the UniProt entries cited, without tags or fusion partners. Where a name states a change or a piece, a line headed by the entry shows the natural chain unless it says otherwise.
UniProt Q9BZZ5: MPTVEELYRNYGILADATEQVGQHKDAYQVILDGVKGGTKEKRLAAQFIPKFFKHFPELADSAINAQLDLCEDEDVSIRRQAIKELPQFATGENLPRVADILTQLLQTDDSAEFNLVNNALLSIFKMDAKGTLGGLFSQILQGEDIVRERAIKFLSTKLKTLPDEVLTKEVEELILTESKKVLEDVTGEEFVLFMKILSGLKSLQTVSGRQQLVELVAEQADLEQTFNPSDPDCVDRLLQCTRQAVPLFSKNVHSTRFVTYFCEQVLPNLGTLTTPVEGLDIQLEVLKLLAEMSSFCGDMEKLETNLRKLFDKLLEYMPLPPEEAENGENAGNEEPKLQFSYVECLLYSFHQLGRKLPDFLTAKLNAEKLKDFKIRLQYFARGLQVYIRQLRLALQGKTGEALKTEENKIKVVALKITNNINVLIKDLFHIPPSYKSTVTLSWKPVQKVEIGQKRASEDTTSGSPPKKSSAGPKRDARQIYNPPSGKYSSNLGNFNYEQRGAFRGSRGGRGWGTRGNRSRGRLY
UniProt P53367: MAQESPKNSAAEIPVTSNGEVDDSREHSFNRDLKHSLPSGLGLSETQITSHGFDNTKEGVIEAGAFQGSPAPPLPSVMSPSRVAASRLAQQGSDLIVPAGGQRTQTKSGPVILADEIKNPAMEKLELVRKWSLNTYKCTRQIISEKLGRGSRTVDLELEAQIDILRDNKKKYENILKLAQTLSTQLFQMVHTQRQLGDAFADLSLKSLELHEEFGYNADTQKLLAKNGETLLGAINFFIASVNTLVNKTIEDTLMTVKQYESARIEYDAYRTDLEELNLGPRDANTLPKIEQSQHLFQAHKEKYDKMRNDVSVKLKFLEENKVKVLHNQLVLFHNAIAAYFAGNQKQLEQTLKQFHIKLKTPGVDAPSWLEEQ
UniProt P63010: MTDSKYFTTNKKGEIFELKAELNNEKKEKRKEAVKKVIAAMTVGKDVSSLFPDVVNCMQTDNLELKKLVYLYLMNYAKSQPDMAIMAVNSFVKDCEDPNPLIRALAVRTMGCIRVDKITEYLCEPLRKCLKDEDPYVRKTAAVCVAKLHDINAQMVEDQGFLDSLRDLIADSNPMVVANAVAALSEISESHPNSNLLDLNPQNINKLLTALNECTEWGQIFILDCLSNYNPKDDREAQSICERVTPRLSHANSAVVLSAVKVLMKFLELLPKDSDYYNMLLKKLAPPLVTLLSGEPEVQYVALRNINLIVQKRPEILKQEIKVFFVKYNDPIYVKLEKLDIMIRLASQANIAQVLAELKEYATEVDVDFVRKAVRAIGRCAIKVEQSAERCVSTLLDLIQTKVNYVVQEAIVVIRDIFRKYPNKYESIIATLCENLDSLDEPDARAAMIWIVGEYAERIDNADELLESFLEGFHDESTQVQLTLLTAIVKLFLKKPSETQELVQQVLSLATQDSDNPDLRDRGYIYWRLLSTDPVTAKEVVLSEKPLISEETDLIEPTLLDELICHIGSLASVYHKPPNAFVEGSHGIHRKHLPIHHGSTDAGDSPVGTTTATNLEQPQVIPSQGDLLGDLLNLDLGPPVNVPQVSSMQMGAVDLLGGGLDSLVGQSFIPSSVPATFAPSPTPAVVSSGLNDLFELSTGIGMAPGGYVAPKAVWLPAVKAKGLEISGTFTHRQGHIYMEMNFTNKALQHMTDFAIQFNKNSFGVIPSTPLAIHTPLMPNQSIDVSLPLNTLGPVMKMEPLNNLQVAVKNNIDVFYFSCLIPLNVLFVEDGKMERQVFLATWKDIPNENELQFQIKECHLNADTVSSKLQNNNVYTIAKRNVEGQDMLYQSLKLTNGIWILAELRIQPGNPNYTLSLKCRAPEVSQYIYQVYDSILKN
UniProt Q9NWB6: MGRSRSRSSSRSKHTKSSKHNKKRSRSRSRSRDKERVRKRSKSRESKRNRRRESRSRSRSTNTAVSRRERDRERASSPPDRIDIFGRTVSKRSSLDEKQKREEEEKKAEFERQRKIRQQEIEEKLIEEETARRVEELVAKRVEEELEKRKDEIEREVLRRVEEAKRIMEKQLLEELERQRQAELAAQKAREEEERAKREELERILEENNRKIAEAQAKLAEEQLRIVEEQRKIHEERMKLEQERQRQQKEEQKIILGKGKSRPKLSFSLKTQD
UniProt Q8TCU4: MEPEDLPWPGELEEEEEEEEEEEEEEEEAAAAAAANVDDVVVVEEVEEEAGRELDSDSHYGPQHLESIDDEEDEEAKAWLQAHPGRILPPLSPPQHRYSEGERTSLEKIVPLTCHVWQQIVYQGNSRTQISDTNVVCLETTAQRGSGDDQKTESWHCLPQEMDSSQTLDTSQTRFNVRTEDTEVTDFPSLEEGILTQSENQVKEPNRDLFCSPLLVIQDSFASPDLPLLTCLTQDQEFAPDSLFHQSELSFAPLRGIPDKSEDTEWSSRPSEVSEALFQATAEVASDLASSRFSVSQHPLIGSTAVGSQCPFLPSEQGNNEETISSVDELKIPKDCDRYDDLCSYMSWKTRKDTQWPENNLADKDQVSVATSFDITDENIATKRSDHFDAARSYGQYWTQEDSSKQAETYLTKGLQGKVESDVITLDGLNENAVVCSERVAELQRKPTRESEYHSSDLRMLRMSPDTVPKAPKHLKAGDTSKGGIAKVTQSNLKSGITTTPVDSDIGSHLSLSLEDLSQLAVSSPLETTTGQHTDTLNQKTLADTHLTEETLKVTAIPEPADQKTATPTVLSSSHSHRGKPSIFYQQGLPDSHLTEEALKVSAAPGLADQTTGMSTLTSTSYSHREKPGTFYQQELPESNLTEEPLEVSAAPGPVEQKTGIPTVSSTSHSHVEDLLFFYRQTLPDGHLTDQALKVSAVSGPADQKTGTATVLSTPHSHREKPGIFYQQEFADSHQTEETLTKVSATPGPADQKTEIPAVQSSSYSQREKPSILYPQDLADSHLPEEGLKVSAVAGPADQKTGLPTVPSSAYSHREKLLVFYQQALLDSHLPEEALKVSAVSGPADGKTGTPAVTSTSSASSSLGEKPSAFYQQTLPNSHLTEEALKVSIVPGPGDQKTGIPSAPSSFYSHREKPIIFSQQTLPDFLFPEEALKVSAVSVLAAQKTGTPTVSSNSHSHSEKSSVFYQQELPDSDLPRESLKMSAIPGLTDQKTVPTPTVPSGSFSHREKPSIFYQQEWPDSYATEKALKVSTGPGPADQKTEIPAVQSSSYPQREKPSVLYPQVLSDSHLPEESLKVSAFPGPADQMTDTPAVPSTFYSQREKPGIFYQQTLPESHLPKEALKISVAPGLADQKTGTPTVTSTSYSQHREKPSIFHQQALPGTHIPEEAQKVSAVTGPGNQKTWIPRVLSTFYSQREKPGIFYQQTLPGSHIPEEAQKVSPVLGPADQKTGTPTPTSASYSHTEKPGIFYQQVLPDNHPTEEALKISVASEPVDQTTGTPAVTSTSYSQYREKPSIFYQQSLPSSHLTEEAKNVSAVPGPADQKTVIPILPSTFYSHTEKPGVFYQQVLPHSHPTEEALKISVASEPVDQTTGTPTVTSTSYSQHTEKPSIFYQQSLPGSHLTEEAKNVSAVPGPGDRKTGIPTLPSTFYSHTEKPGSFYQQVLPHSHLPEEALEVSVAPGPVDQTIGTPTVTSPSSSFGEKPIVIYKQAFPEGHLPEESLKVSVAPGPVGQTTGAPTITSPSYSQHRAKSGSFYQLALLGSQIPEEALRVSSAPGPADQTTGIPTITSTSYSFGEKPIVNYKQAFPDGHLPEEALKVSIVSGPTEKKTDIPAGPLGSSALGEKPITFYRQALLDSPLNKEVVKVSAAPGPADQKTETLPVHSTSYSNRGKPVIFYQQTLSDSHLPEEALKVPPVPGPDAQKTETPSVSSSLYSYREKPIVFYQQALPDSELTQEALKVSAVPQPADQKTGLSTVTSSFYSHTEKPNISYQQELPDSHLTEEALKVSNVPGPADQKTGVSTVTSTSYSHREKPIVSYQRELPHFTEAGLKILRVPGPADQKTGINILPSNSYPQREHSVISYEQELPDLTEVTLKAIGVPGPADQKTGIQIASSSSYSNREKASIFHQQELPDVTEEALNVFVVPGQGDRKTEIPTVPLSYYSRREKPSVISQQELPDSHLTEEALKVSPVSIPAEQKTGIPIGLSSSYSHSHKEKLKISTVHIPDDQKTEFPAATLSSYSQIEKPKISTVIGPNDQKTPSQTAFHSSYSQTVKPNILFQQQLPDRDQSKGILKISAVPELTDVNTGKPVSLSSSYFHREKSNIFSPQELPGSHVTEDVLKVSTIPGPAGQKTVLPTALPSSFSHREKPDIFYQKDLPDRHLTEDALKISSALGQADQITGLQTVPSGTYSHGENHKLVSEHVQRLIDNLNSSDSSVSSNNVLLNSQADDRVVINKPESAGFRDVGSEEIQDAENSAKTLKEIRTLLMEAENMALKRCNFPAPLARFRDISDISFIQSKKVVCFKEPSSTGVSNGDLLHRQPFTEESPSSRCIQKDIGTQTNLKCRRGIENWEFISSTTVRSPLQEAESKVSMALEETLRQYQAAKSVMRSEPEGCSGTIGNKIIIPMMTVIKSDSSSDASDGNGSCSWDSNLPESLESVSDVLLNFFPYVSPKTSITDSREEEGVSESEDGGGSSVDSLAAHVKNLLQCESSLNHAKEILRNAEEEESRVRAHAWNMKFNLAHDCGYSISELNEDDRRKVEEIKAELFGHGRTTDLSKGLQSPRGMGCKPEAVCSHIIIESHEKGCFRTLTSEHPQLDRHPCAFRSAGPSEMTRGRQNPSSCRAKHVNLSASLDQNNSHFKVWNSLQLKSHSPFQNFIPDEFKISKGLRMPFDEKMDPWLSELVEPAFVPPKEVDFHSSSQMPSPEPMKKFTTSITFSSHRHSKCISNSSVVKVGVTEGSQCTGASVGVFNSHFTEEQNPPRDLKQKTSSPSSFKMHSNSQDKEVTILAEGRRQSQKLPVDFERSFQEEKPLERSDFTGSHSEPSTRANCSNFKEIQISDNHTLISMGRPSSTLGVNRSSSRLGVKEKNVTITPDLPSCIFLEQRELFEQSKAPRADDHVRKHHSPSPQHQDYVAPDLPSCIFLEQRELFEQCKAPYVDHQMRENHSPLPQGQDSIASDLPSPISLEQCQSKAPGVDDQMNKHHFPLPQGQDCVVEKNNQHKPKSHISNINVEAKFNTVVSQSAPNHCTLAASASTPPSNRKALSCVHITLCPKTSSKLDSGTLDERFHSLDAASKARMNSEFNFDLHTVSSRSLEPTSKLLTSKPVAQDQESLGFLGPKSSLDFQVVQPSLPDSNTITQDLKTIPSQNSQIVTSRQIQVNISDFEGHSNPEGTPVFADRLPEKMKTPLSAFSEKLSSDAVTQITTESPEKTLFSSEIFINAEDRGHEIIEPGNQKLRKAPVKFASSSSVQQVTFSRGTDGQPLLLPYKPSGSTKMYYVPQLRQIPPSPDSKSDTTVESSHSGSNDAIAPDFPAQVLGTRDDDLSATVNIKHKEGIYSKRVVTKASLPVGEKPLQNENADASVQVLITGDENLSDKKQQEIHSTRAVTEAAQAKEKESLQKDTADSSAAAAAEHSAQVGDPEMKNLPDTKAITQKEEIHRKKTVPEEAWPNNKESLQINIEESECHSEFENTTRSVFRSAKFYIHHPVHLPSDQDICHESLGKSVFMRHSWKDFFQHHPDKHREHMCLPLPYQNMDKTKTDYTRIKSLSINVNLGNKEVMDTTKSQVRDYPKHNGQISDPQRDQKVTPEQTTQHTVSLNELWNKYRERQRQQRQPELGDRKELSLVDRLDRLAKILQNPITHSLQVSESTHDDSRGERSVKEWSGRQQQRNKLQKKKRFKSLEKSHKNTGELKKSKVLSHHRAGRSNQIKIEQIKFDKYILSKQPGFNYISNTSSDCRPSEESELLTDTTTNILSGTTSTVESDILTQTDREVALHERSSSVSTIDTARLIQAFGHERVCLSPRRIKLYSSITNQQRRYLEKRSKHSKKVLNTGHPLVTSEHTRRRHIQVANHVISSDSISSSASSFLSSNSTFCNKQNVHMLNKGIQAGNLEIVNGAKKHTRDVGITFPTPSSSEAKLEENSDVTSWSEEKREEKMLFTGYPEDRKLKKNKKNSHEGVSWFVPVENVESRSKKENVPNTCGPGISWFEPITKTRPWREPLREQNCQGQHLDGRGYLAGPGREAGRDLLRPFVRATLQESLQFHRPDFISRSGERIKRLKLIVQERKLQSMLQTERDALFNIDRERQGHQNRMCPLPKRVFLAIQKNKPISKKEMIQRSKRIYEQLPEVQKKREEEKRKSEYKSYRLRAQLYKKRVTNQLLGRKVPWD
UniProt P12429: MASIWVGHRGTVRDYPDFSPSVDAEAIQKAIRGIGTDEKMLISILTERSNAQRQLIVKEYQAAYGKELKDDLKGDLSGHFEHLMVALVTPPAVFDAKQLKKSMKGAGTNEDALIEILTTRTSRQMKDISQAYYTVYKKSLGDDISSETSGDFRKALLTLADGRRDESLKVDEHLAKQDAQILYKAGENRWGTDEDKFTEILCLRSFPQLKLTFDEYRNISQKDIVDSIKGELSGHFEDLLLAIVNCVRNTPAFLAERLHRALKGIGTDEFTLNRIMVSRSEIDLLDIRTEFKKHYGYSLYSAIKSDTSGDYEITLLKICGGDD

The list shows a part of the results.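 Rule for the calls: active = dose-dependent thermal stabilisation significant by F-test of dose-response against flat model at 10% FDR; inactive = not significant.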

Compound in this experiment: Nc1nc2c(ncn2[C@@H]2O[C@H](COP(=O)(O)OP(=O)(O)OP(=O)(O)O)[C@@H](O)[C@H]2O)c(=O)[nH]1
As to the kind of experiment: dose-dependent thermal stabilisation call (2D-TPP, DLPTP, 10% FDR) (binary (1 = stabilised)); higher = stabilised by the compound. To be noted: system: Jurkat gel-filtered lysate; concentration range 1-500 µM. As for the experimental part:
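2D thermal proteome profiling in gel-filtered Jurkat E6.1 lysate (2 mg/ml) treated with NaGTP (0, 1, 10, 100, 500 uM) for 10 min at room temperature, then heated 3 min at one of 12 temperatures (42-63.9 C). Soluble protein was quantified by TMT10 MS. The value is the DLPTP call of the paper: dose-dependent thermal stabilisation over all temperatures at 10% FDR (F-test of a dose-response against a flat model); one experiment, one call per tested protein.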
For the target ABCE1 (UniProt P61221), the “dose-dependent thermal stabilisation call” value was active: 1.

On to ADD3 (UniProt Q9UEY8), for which the “dose-dependent thermal stabilisation call” value was inactive: 0.

Turning to ANXA2 (UniProt P07355), the “dose-dependent thermal stabilisation call” value is inactive: 0.

On to API5 (UniProt Q9BZZ5), for which the “dose-dependent thermal stabilisation call” value is inactive: 0.

Consider ANKS1A (UniProt Q92625), for which the “dose-dependent thermal stabilisation call” value is inactive: 0.

On to ADSL (UniProt P30566), for which the “dose-dependent thermal stabilisation call” value is inactive: 0.

Take AAK1 (UniProt Q2M2I8): the “dose-dependent thermal stabilisation call” value is inactive: 0.

For ACP1 (UniProt P24666), the “dose-dependent thermal stabilisation call” value was inactive: 0.

Consider AMPD3 (UniProt Q01432), for which the “dose-dependent thermal stabilisation call” value is inactive: 0.

Turning to APC (UniProt P25054), the “dose-dependent thermal stabilisation call” value is inactive: 0.

For the target AAMP (UniProt Q13685), the “dose-dependent thermal stabilisation call” value is inactive: 0.

In the case of AKNA (UniProt Q7Z591), the “dose-dependent thermal stabilisation call” value is inactive: 0.

Turning to ALDH18A1 (UniProt P54886), the “dose-dependent thermal stabilisation call” value is inactive: 0.

Consider ALDH16A1 (UniProt Q8IZ83), for which the “dose-dependent thermal stabilisation call” value is inactive: 0.

Regarding ACTR1B (UniProt P42025), the “dose-dependent thermal stabilisation call” value was inactive: 0.

Take AP1S2 (UniProt P56377): the “dose-dependent thermal stabilisation call” value is inactive: 0.

As for ARFIP1 (UniProt P53367), the “dose-dependent thermal stabilisation call” value was inactive: 0.

Take ACADS (UniProt P16219): the “dose-dependent thermal stabilisation call” value was inactive: 0.

As to AP1G2 (UniProt O75843), the “dose-dependent thermal stabilisation call” value was inactive: 0.

Regarding ABCF1 (UniProt Q8NE71), the “dose-dependent thermal stabilisation call” value is active: 1.

On to APOBR (UniProt Q0VD83), for which the “dose-dependent thermal stabilisation call” value is inactive: 0.

For ALDH5A1 (UniProt P51649), the “dose-dependent thermal stabilisation call” value was inactive: 0.

As to AKAP8 (UniProt O43823), the “dose-dependent thermal stabilisation call” value was inactive: 0.

With ANXA11 (UniProt P50995), the “dose-dependent thermal stabilisation call” value was inactive: 0.

With ANAPC10 (UniProt Q9UM13), the “dose-dependent thermal stabilisation call” value is inactive: 0.

As for ANKRD10 (UniProt Q9NXR5), the “dose-dependent thermal stabilisation call” value was inactive: 0.

For the target ACY1 (UniProt Q03154), the “dose-dependent thermal stabilisation call” value was inactive: 0.

For the target ADAT3 (UniProt Q96EY9), the “dose-dependent thermal stabilisation call” value is inactive: 0.

For AP2B1 (UniProt P63010), the “dose-dependent thermal stabilisation call” value is inactive: 0.

For ALKBH8 (UniProt Q96BT7), the “dose-dependent thermal stabilisation call” value is inactive: 0.

Regarding AKAP11 (UniProt Q9UKA4), the “dose-dependent thermal stabilisation call” value is inactive: 0.

On to AFDN (UniProt P55196), for which the “dose-dependent thermal stabilisation call” value was inactive: 0.

Turning to ARGLU1 (UniProt Q9NWB6), the “dose-dependent thermal stabilisation call” value is active: 1.

ARG2 (UniProt P78540): the “dose-dependent thermal stabilisation call” value is inactive: 0.

For the target ACTBL2 (UniProt Q562R1), the “dose-dependent thermal stabilisation call” value was active: 1.

ARFGEF1 (UniProt Q9Y6D6): the “dose-dependent thermal stabilisation call” value is inactive: 0.

Regarding ABLIM2 (UniProt Q6H8Q1), the “dose-dependent thermal stabilisation call” value was inactive: 0.

Turning to APRT (UniProt P07741), the “dose-dependent thermal stabilisation call” value was inactive: 0.

With ALMS1 (UniProt Q8TCU4), the “dose-dependent thermal stabilisation call” value is inactive: 0.

ANXA3 (UniProt P12429): the “dose-dependent thermal stabilisation call” value is active: 1.
